Results are given in words; binding and its absence hold for the method and conditions named. Some binding calls cover weakened binding; strength is not graded here.

The assay concerns the target T1, APOBEC-1 (as used in yeast two hybrid analyses and in the Drosophila S2 cell editing system) (UniProt P38483).
T1 sequence (looked up): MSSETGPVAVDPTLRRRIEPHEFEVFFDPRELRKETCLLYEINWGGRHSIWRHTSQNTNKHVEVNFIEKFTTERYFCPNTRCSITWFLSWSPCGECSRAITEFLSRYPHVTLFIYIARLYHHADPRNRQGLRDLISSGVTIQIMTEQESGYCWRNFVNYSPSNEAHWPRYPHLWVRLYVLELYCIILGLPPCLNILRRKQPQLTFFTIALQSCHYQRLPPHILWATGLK
Kind of assay: yeast two hybrid, histidine prototrophy with increasing 3-aminotriazole.

B1: ACF43 (protein)
chain: MESNHKSGDGLSGTQKEAALRALVQRTGYSLVQENGQRKYGGPPPGWDTTPPERGCEIFIGKLPRDLFEDELIPLCEKIGKIYEMRMMMDFNGNNRGYAFVTFSNKQEAKNAIKQLNNYEIRNGRLLGVCASVDNCRLFVGGIPKTKKREEILSEMKKVTEGVVDVIVYPSAADKTKNRGFAFVEYESHRAAAMARRRLLPGRIQLWGHPIAVDWAEPEVEVDEDTMSSVKILYVRNLMLSTSEEMIEKEFNSIKPGAVERVKKIRDYAFVHFSNREDAVEAMKALNGKVLDGSPIEVTLAKPVDKDSYVRYTRGTGGRNTMLQEYTYPLSHVYDPTTTYLGAPVFYAPQAYAAIPSLHFPATKGHLSNRALIRTPSVRGNIS
Regarding B1, the binding entry is reported as “binds”.

B2: ACF45 (protein)
chain: MESNHKSGDGLSGTQKEAALRALVQRTGYSLVQENGQRKYGGPPPGWDTTPPERGCEIFIGKLPRDLFEDELIPLCEKIGKIYEMRMMMDFNGNNRGYAFVTFSNKQEAKNAIKQLNNYEIRNGRLLGVCASVDNCRLFVGGIPKTKKREEILSEMKKVTEGVVDVIVYPSAADKTKNRGFAFVEYESHRAAAMARRRLLPGRIQLWGHPIAVDWAEPEVEVDEDTMSSVKILYVRNLMLSTSEEMIEKEFNSIKPGAVERVKKIRDYAFVHFSNREDAVEAMKALNGKVLDGSPIEVTLAKPVDKDSYVRYTRGTGGRNTMLQEYTYPLSHVYDPTTTYLGAPVFYAPQAYAAIPSLHFPATKGHLSNRALIRTPSVRGCSRTPSIYLCFLTAVHAGVHHIHVQ
As for B2, the binding entry is “binds”.

The values are drawn from US20090075925A1, “Methods and Compositions Related to APOBEC-1 Expression” (priority 2006, published 2009).
